US10668061B2, “Mouse with D4R iRNA in the intercalating cell mass of the amygdala” (POSTECH ACADEMY-INDUSTRY FOUNDATION, priority 2016, dated 2020)
At least one structure is not confirmed: it was looked up by name or label, or the drawing left a doubt.

Tested on: dorsal ITC neurons
Assay: STDP-induced DA-dependent LTD (DA-LTD) in dorsal ITC neurons, amygdala slice whole-cell recordings
Type: cell-based
Settings: STDP protocol in presence of DA; antagonists in optimal concentrations selective for each receptor; naive mice

CN1CCc2cc(Cl)c(O)cc2[C@@H](c2ccccc2)C1 [SCH-23390]
effect on DA-LTD: did not affect DA-LTD
